Laboratory results taken from article doi:10.1101/2022.09.15.508097.
Results are given in words; binding and its absence hold for the method and conditions named. Some results given as binding are weak or reduced against the parent protein; the word gives no strength. For some of these results: Where a sequence is shown, tags or fusion partners need not be part of it.

Protein sequences, listed by entry. Tags and fused reporters are not part of them. Lines headed by an entry give the natural chain unless they say otherwise; changes in a name come on top. Residues count along the entry.
UniProt Q9C0D4: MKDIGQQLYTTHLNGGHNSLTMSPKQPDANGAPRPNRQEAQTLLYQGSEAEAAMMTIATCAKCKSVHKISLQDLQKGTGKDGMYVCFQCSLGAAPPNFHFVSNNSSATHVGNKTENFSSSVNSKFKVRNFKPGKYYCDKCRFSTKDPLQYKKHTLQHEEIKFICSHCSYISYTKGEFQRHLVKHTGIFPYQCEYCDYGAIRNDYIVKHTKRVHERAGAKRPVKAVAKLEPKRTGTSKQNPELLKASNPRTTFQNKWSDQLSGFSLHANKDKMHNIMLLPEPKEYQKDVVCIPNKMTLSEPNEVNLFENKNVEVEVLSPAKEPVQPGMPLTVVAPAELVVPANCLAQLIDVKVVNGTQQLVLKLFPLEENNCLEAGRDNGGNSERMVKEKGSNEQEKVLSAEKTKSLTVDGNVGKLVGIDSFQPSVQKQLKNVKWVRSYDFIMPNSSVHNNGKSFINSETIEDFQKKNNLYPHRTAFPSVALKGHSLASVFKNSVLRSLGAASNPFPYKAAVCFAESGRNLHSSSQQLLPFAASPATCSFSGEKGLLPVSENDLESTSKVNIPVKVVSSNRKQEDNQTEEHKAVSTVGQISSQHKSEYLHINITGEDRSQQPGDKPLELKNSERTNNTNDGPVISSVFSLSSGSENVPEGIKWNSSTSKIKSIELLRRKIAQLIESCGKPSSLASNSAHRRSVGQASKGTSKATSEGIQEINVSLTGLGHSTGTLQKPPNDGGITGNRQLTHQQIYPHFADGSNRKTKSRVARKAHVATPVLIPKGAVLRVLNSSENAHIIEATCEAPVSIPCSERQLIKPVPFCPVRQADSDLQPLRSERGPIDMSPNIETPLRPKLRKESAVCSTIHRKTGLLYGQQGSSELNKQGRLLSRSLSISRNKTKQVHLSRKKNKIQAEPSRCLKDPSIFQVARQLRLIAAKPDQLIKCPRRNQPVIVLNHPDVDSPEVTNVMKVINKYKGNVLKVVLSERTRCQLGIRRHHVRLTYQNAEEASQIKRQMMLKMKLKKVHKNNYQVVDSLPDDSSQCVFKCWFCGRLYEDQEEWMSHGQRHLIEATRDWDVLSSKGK
TetR-EYFP-ZNF518B^344–1074: residues 344-1074 of Q9C0D4
TetR-EYFP-ZNF518B^555–1074: residues 555-1074 of Q9C0D4
TetR-EYFP-ZNF518B^878–1074: residues 878-1074 of Q9C0D4
UniProt Q96KQ7: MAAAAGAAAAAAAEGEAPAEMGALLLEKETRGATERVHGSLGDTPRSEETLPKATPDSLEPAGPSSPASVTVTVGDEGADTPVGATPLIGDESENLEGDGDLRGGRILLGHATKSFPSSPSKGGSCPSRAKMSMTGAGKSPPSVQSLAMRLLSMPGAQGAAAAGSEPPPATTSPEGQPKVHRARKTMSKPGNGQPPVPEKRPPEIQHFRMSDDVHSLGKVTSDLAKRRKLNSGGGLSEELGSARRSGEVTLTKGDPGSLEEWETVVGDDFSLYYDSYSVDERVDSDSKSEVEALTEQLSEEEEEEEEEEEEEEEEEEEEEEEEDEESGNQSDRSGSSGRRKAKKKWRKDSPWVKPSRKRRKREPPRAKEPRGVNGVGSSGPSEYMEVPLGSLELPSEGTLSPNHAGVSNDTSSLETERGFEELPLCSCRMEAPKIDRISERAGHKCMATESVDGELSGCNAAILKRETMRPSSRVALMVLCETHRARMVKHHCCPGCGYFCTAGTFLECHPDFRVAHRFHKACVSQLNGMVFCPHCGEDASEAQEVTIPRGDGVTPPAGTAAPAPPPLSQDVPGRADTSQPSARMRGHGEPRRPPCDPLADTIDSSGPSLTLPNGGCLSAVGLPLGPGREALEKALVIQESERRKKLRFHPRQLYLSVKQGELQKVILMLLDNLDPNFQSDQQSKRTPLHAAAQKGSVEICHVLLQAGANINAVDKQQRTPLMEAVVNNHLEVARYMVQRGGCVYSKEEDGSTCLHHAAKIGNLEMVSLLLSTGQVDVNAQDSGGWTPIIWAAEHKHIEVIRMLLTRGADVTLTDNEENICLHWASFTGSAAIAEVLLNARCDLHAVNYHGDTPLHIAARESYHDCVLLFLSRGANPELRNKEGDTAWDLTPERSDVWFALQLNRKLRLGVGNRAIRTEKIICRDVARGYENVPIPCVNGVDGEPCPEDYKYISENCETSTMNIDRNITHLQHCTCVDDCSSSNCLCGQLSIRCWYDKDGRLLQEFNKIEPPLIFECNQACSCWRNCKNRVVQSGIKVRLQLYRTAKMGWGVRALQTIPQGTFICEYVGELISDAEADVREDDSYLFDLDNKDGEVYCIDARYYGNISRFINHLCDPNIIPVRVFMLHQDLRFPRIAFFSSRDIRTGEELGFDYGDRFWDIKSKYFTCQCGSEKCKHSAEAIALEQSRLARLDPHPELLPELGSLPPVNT

How the values were obtained:
Experiment in all cases: fluorescence microscopy-based interaction-trap
[1] = target: TetR-EYFP-ZNF518A^1317–1483 (human) (UniProt Q6AHZ1)
[2] = target: TetR-EYFP-ZNF518A^1–970 (human) (UniProt Q6AHZ1)
[3] = target: T1, TetR-EYFP-ZNF518A^WT (human) (UniProt Q6AHZ1)
T1 sequence: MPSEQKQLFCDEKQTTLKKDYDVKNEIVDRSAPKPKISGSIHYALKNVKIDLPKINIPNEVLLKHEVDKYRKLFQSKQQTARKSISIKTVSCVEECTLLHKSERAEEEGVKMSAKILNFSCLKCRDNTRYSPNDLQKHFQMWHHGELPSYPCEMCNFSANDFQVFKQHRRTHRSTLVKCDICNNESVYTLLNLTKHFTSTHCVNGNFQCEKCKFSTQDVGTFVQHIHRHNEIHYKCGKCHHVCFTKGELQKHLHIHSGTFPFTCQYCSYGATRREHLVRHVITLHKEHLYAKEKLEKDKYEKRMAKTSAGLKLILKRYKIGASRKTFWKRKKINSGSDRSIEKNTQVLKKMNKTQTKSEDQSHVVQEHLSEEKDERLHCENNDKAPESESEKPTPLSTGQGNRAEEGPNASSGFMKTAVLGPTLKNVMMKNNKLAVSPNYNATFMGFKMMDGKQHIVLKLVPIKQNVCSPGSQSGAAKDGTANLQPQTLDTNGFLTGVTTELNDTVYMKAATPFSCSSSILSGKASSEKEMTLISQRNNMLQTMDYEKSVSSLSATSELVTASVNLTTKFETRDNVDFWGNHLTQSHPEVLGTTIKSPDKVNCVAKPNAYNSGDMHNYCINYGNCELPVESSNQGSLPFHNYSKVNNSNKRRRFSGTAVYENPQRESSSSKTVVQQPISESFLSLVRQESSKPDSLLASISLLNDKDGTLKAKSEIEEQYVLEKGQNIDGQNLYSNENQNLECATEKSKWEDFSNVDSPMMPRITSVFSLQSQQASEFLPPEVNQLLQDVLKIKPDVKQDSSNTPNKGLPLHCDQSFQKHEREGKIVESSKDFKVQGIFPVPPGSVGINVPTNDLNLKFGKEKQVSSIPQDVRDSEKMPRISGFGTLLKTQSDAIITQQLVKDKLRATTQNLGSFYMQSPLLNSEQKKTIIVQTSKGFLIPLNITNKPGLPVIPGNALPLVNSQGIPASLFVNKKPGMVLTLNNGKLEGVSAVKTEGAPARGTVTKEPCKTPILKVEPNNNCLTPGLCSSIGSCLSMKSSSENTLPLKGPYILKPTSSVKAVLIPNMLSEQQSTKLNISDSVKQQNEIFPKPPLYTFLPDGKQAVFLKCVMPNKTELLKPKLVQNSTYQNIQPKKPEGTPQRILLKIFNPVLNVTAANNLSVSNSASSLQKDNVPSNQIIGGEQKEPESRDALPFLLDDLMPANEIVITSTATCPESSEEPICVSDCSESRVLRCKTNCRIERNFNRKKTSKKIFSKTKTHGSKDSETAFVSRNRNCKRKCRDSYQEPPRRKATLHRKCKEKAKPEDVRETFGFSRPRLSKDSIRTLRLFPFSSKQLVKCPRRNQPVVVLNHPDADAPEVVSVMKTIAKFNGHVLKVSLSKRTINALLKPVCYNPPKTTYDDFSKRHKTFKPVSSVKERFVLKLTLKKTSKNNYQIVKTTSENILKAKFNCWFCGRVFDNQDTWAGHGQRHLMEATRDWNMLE

[4] = target: TetR-EYFP-ZNF518B^344–1074 (human) (UniProt Q9C0D4)
[5] = target: TetR-EYFP-ZNF518B^555–1074 (human) (UniProt Q9C0D4)
[6] = target: TetR-EYFP-ZNF518B^878–1074 (human) (UniProt Q9C0D4)
[7] = target: TetR-EYFP-ZNF518B^WT (human) (UniProt Q9C0D4)

Measured: binding

Halo-G9a (from UniProt Q96KQ7 1-1210) (enzyme)
binds: [1] | [2] | [3] | [4] | [5] | [6] | [7]
